Measurements published in publication PMC12370185.
The list shows a part of the results.

Experiments:
Experiment in all cases: EMSA with sequencing
Details in all cases: 10 mM Tris-Cl pH 7.5, 50 mM NaCl, 1 mM DTT, 0.25 mg/ml BSA, 2 mM MgCl2, 0.025% Nonidet P-40, 5% glycerol; 28 nM nucleosome library; 10 min on ice then 30 min …; high values mean tight binding; double strand, one strand shown
KLF4 + histone octamer = system: KLF4 + histone octamer
OCT4 + histone octamer = system: OCT4 + histone octamer
SOX2 + histone octamer = system: SOX2 + histone octamer
[1] = system: c-MYC + MAX + histone octamer

Sequence | binding signal (log2 relative supershift) (KLF4 + histone octamer) | binding signal (log2 relative supershift) (OCT4 + histone octamer) | binding signal (log2 relative supershift) (SOX2 + histone octamer) | binding signal (log2 relative supershift) [1]
GATGGACCCTATACGCGGCTGTGAGAAATTAGAACCCTCATACATTGTTGGTGGGGATGTAAAATGATGCTATCACTTTGGCAAACAGTTTGGCAGCACCTCAAAATGTGAAACATAGAATTAGCATATGACCCAGCAATTCCAGCCCGATGTATCTACCCACAATGCATATGTCCCCACAAAAACCTGTGCATGAATGTTCATAACAGCTGCCAGTCGGATAGTGTTCC | 1.82 | 0.314 | 1.28 | 0.155
GATGGACCCTATACGCGGCAGGTGAGCAATCACAGTATCTGTTTATAACTTCATATCACTGAAAGAGGAACTGAATAGGGTAGAAAAGACAATATTGAATTGCTGACACCACCCCTGCCCCATCTCCTGGCAGTGACCACGTGTCACAGAGAGAGAATCTGTGCACTTGGGTGAGGGAGAGTGCAGGGATTGCGGGAAATCAGTACTGCATGCCAGTCGGATAGTGTTCC | 0.793 | 0.189 | 0.292 | 0.293
GATGGACCCTATACGCGGCAGGACACAGCCACATCTCCAACCCGACCCACAAGTCTTTACACCAGATGCTTTGTGCAGATATGGGAGCCAGCACAGGGGGCTTGTCTGGGCATGCCCCACAACCACTAGGAGAATGGGTGGAGCCACCAGGAATTCATGAATTATGAGGGGAAAGAGCCTGGCCTCTTCAACTCACGTGTGGTGGCCTGCTGCCAGTCGGATAGTGTTCC | 1.21 | 0.0349 | 0.175 | 0.656
GATGGACCCTATACGCGGCGCTTTTAATCACTTCTTTGTAAAGCCCCACAGTTTTTGCTACTTATTCAGTCCCTCTGCATATCAAATTTGCATTTGAAGATACTCAAAGACTGCTTAAGTGACAAATCACAGATTGCACCAAGCAGGGTGTGAGTGCATGTGTTCTGTGCAGACAGGCTGCTCCAGTCTCACCTGGCTTTCAAAGCCCTCTGCCAGTCGGATAGTGTTCC | 1.46 | 0.675 | 1.08 | 0.823
GATGGACCCTATACGCGGCCATTTGCAGAGAGTGGCATTTCTAAGGTACTCTTAGATTTCCTCCCCGTGTCTCAGTGTCCTCCAGGAGTGTGCAGGGAACAGCCTGTGGTTATGCGCATTTGTGCTGGGAAGAGATGTAACTATCCATGTGCAGGACATTTGGGAGGGGTGGGAGTGTGTGGGTACGTGGCCCTGTGCAGGTTGAGTGTGTGCCAGTCGGATAGTGTTCC | 1.82 | 0.139 | 0.616 | 0.621
GATGGACCCTATACGCGGCTAGAACCAGAACTAGCTTAACATGGCATTTAAAACGTAACATAAAGATGCATAACAATGAGATGCCACTTCACACTTATCAGAATGGCTGAAATCCAAAACACTGACACCAATGCTGGCCAAGATGTGGGACAACAGGAATGCTGCTTCATTGCTGGTGGGAATGCAAACTGATACTGCCCTTTGGAAGAGTGCCAGTCGGATAGTGTTCC | 1.71 | 0.247 | 0.837 | 0.337
GATGGACCCTATACGCGGCACCTCAAGTGAATAAATTGACCTCGAATGACACAACCATAATCTACTTTTAGATGAAAGGCAAGGGATTTTGGTGGAGCTTGAGGTGGGGGGTGGCTGCGGTAATGTAACTAAACTGCATTCTCAAGCGGATTTGGCCCCGTATTGCACTTTGCATGCAAATGAGCCTGTGTTATTATTATTAATGTTATTTGCCAGTCGGATAGTGTTCC | 0.686 | 0.859 | 0.725 | 0.0939
GATGGACCCTATACGCGGCTATGTCCTTGGGATTCAGGGCAATTAATGTTCTCTTTCTCCTGTTCCCTATTTAGCACACAGCAAGGCTGGCCCGTTTGAGCATCCTCATGTGATCCTTGATTGCATTACAAAATATGATCAAAAGAATCTACCTCAATGGGCATGATTGTGCTGCTTGCTAAACTCAATGGCAATTTATTTAAATATGATTGCCAGTCGGATAGTGTTCC | 0.58 | 1.93 | 0.88 | 0.485
GATGGACCCTATACGCGGCAAGAACAGCACAGGAAAGACCTGTCCCCATAATTCAATCACTTCCCACCAGGTTCCTCCCATGACATGTGGGAATTGTGGGCGTAACAATTGAAGATGAGATTTGGGTGGGGACACAGCCAAACCATATCAATACCTCAACATAATAAAGGCCACATATGACAAACTCACAGCTAACATTGTATTGAGTGGTGCCAGTCGGATAGTGTTCC | 1.5 | 0.115 | 1.54 | 0.295
GATGGACCCTATACGCGGCGTCCCTTACCCCTCTACCCACTCACCCTTTAACTGTGCTTCTGTGTTTGTGTTTCTGTATATACCTGGGTGTATGCATATGCAGCAGGGTGGGTGTATGTACATATACAACCATTTGAGAAGCTGCATAGTGCCGTGTCTAGTGGTGTAAATCTACATTGGTGTGTACAGAATTGTATCTACAGCATGTGGTGCCAGTCGGATAGTGTTCC | 1.5 | 0.00821 | 0.246 | 0.827
GATGGACCCTATACGCGGCGTAATAGGTAGCTCACTATTTGGCTGGGTAGGGTAAACCGCCTGGTCAAGCCTGTTCATACAGGCATGCCAACTGCATATGCACTGTAAAGACCTTCCCCTAAAGGCCTCTTCTCCAAGGTCCCTCAGCTGTGCTTAGGTCTCTCTTTAGCTTCAGGGTAGCTCTCCTGTATGTCTGAGCCTCAGATAAGCTGCCAGTCGGATAGTGTTCC | 1.88 | 0.206 | 0.356 | 0.415
GATGGACCCTATACGCGGCCACATTCTGGGTTGTCTTATTACATAACAGTGATTTGTACATGAATGGCTACCACCAATGCTGATGGGAGCTACCAGGCTGCAATGTCCTGCCCACCCAGCACTGCATGTGCTGCCATATTCATAGCTGCCCTTAAGGTCCAAGGTAATGCTTTCTGGTAATAACTCAGTGCAAACAAAATGTTGATGTGCTGCCAGTCGGATAGTGTTCC | 0.419 | 0.0981 | 0.202 | 0.277
GATGGACCCTATACGCGGCCCATTTATTAATGTTTAAAAACATGCAAAACAATATGCATATATACAGACTGTGTATTAACAATGTTTAAAAATGCATGGGCATGTTAAACACCCGGGGAGTGGCTGGGGAGAGAAGGAGGGAAAAGGGATTGGAGTTGGGAGGGGTGGTACACGGTGGGTGTCAACTGTAACAAACTACTACAAAAAGAGTGCCAGTCGGATAGTGTTCC | 2.26 | 1.31 | 1.36 | 0.191
GATGGACCCTATACGCGGCGCTCTAGCTCCTGTGGCCTCGACCTCTTCACCCCAGCACCGCCTCCAACTAGTCCAGACAAGTCCCAAGTATTTTCAGCCACCTTTATCTGATCAGAAATGTTTGGAATTCCACAGCAGAAGGCAACAGCTCTGGAGGATTTGGGGAAGGGAGCAAATCCCTGCAACACCCTTCTCTCCCCACTGTACAGATGCCAGTCGGATAGTGTTCC | 2.57 | 0.359 | 0.221 | 0.47
GATGGACCCTATACGCGGCCTATTTGGGGCCTATTGCTATAGCAGCTACTGTTTAGCTTCCTGGATCATCACTACAGATAGCAATCTGGCTTCCTGCAGGTCTGACTTACAGCAGGATGGCTTCTTGTGTTGCTCATTGCAGATAAGGAGCTGGTTTCCTGGGCAGGTTTCTACAAGTTGTGGATCAAAGTTCTATTTTTATATATGGTCTGCCAGTCGGATAGTGTTCC | 0.911 | 0.0393 | 0.534 | 0.00767
GATGGACCCTATACGCGGCTTTTGATAGTCTGATAGGGCTCTGGCGGATGGTAACTCCCATCTTACCATGTTGCAACTTGCAAGCTTTTGTAGTGCTGATGCTTCTGTTAGACTGGCCCAATCTTGCTTGTCATTAAATTTCCAGTTTACAGCTTGGCATGTCTACACCCTCAGAACATGTTTGTCAAATGAATGAATGAAACAAGGAGATGCCAGTCGGATAGTGTTCC | 2.29 | 0.00532 | 1.64 | 0.47
GATGGACCCTATACGCGGCTATTTGATCATAGAACAGCCTCCCTTGTCATTGTTTTGTGTTGGAAAACCCACTGGGGTGCCGTGGAGCACCATTTGGGAGGCACCATTGAAACAAGCAGGATTTCTTTTCCCATGAGGCCTGGTACCTATTCCTTCAATGTGCTGTATTTCCATAAATCATATGTAGGTGGCTGCCTGCTTTGTCTGTGGTGCCAGTCGGATAGTGTTCC | 2.15 | 1.81 | 1.98 | 0.62
GATGGACCCTATACGCGGCAATCAACATCTAAAAGAGTATTTCCGTGTGACCCATGCACGGTTCATTTGAGCATTCACAGGGTGTTCCCCACAGCCTGGTACATTACAGCTTTTGTCATAACATGAACAGCAATCGGCTCAAAACACTGCCCATTGTGATGCTGATGATGAGACCTCCCTAATGTTCTAAAAGATTGTTTGGTGTAACCATGCCAGTCGGATAGTGTTCC | 2.26 | 0.589 | 1.02 | 0.896
GATGGACCCTATACGCGGCGTTCTAGTGTATTTTAAAAGGTTTCTGTATGCAAGAGCGTGTTCATTGTGCAGAGCAGAGTGTCTGTTTTAAAGCAGTGGCTCTCAGCTCTCATTGTTCTGCAGAATCACCTGGGCCCTACCCCAGAGCTTCTGATTCATTTGGTCTGAGATGAGGCTTAGCCGTGGTTTTAGTTTTAAGCTCCCTGGAGATGCCAGTCGGATAGTGTTCC | 1.51 | 0.394 | 0.899 | 0.457
GATGGACCCTATACGCGGCTGTAAGATTTAAAAGCTTCCCAGGTGATTCTAATGTATAGCCAGGCTTAAGAACCTGCCCCACTCACCAATACAGAGCAGTTGTTCTCAAACTTTAATGAATGTAGGCATCACCTGCATATGAATGCAGACACCCACAGAGGTTATTATTCAGCAGGTCAAAGGTGGGCTAGAAAACTCCTTTTTAAATGATGCCAGTCGGATAGTGTTCC | 2.06 | 0.0954 | 1.34 | 0.0603
GATGGACCCTATACGCGGCGGGCTCACTCACATGTGAGTGTTGGCTGGCTGTGGTCTAATCTCAGATAGCCTCAGCTGGGATATCTAAAGCGATTCAGCTCTGATCCATGTGTCTCTAGTAACAAGTCAGGGCTCGTTCTCATAACCAAGGCAGAAAGCAAACAAGCCCAGGCATACATACACTTTTCTTTTCTGATTGTATTATGTTTATGCCAGTCGGATAGTGTTCC | 0.187 | 0.706 | 1.61 | 0.165

A section from further up:
Sequence | binding signal (log2 relative supershift) (KLF4 + histone octamer) | binding signal (log2 relative supershift) (OCT4 + histone octamer) | binding signal (log2 relative supershift) (SOX2 + histone octamer) | binding signal (log2 relative supershift) [1]
GATGGACCCTATACGCGGCAGGTGAGCAATCACAGTATCTGTTTATAACTTCATATCACTGAAAGAGGAACTGAATAGGGTAGAAAAGACAATATTGAATTGCTGACACCACCCCTGCCCCATCTCCTGGCAGTGACCACGTGTCACAGAGAGAGAATCTGTGCACTTGGGTGAGGGAGAGTGCAGGGATTGCGGGAAATCAGTACTGCATGCCAGTCGGATAGTGTTCC | 0.793 | 0.189 | 0.292 | 0.293
GATGGACCCTATACGCGGCAGGACACAGCCACATCTCCAACCCGACCCACAAGTCTTTACACCAGATGCTTTGTGCAGATATGGGAGCCAGCACAGGGGGCTTGTCTGGGCATGCCCCACAACCACTAGGAGAATGGGTGGAGCCACCAGGAATTCATGAATTATGAGGGGAAAGAGCCTGGCCTCTTCAACTCACGTGTGGTGGCCTGCTGCCAGTCGGATAGTGTTCC | 1.21 | 0.0349 | 0.175 | 0.656
GATGGACCCTATACGCGGCGCTTTTAATCACTTCTTTGTAAAGCCCCACAGTTTTTGCTACTTATTCAGTCCCTCTGCATATCAAATTTGCATTTGAAGATACTCAAAGACTGCTTAAGTGACAAATCACAGATTGCACCAAGCAGGGTGTGAGTGCATGTGTTCTGTGCAGACAGGCTGCTCCAGTCTCACCTGGCTTTCAAAGCCCTCTGCCAGTCGGATAGTGTTCC | 1.46 | 0.675 | 1.08 | 0.823
GATGGACCCTATACGCGGCCATTTGCAGAGAGTGGCATTTCTAAGGTACTCTTAGATTTCCTCCCCGTGTCTCAGTGTCCTCCAGGAGTGTGCAGGGAACAGCCTGTGGTTATGCGCATTTGTGCTGGGAAGAGATGTAACTATCCATGTGCAGGACATTTGGGAGGGGTGGGAGTGTGTGGGTACGTGGCCCTGTGCAGGTTGAGTGTGTGCCAGTCGGATAGTGTTCC | 1.82 | 0.139 | 0.616 | 0.621
GATGGACCCTATACGCGGCTAGAACCAGAACTAGCTTAACATGGCATTTAAAACGTAACATAAAGATGCATAACAATGAGATGCCACTTCACACTTATCAGAATGGCTGAAATCCAAAACACTGACACCAATGCTGGCCAAGATGTGGGACAACAGGAATGCTGCTTCATTGCTGGTGGGAATGCAAACTGATACTGCCCTTTGGAAGAGTGCCAGTCGGATAGTGTTCC | 1.71 | 0.247 | 0.837 | 0.337
GATGGACCCTATACGCGGCACCTCAAGTGAATAAATTGACCTCGAATGACACAACCATAATCTACTTTTAGATGAAAGGCAAGGGATTTTGGTGGAGCTTGAGGTGGGGGGTGGCTGCGGTAATGTAACTAAACTGCATTCTCAAGCGGATTTGGCCCCGTATTGCACTTTGCATGCAAATGAGCCTGTGTTATTATTATTAATGTTATTTGCCAGTCGGATAGTGTTCC | 0.686 | 0.859 | 0.725 | 0.0939
